From patent publication US20110097274A1, “Carbon-11 and fluorine-18 labeled radioligands for positron emission tomography (PET) imaging for the brain serotonin transporters” (priority 2002, published 2011)
Some results were stated once for a whole list of compounds, not compound by compound.

experiment: Plasma free fraction (f1) and filter retention by ultrafiltration; type: in vitro ADME, baboon; settings: activity remaining on filter, radioligand dissolved in saline; mean ± SD of four experiments
Description: Plasma and ultrafiltrate activities were counted, and f1 was calculated as the ratio of ultrafiltrate activity to total plasma activity. Triplicate aliquots of the radioligand in pH 7.4 Tris buffer were also processed to determine the filter retention of free tracer.

Q: Which Filter retention does the source give for CN(C)Cc1ccccc1Sc1ccc(C#N)cc1N [[^11C]DASB] here?
A: < 20%

Q: Which Filter retention does the source give for CN(C)Cc1ccccc1Sc1ccc(Br)cc1N [[^11C]DAPA] here?
A: more than 75%

Q: Which Filter retention does the source give for CN(C)Cc1ccccc1Sc1ccc(I)cc1N [[^11C]ADAM] here?
A: more than 75%
